Data taken from ChEMBL document CHEMBL3988442, “University of Dundee, Small-Polar-MMV Screening Library” (2021).

Sequences of proteins named here, by UniProt entry; tags and fusion partners are left off.
UniProt E9BF75, entry or part of it: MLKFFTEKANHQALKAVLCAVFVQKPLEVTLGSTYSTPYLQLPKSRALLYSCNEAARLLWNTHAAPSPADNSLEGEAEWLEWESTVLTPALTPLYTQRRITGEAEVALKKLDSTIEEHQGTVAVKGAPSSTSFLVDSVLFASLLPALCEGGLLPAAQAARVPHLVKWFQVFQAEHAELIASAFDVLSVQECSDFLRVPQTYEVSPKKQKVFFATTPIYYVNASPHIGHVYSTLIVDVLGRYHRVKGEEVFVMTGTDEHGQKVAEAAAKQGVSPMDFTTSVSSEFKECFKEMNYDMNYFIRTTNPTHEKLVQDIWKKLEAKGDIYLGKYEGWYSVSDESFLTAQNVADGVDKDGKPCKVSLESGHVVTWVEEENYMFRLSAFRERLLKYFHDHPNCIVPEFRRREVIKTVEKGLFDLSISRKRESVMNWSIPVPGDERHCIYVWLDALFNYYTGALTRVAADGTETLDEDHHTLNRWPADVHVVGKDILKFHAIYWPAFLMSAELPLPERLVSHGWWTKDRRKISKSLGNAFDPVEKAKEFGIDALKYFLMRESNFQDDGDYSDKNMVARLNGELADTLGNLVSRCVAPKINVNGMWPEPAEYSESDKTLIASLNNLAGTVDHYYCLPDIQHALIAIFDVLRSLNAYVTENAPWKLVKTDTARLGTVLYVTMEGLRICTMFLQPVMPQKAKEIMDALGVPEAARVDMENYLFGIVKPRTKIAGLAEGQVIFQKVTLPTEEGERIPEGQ

Mtb heat-shock: 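Assay on Mycobacterium tuberculosis, filed only as a heat shock assay from Cornell; the read-out is not stated. The concentration is filed as 10 mM, unlikely as a test dose, so the dose is not known. Higher reads as stronger inhibition (inferred: compounds with an IC50 in retests scored well above the rest). About 69,000 compounds were tested under these conditions; 1.4% (about 930) showed 50% or more at least once.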
LdMetRS: 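Primary screen of methionyl-tRNA synthetase; the read-out is not stated. Target: Methionyl-tRNA synthetase (putative), Leishmania donovani (UniProt E9BF75). The test concentration is not given. Values are per cent inhibition. Of about 68,000 compounds tested this way, about 24 (0.035%) reached 50% or more in at least one test.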
Mtb growth Cornell: 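Whole-cell assay for inhibitors of Mycobacterium tuberculosis growth, labelled Cornell in the record; the read-out is not stated. The concentration is filed as 10 mM, unlikely as a test dose, so the dose is not known. Higher means stronger inhibition (inferred from two other growth screens of the library). About 53,000 compounds were tested under these conditions; 1.7% (about 900) showed 50% or more at least once.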

All values are in %.
The controls that fix the scale are not given in the record; negative values are as filed.
Compounds were drawn at random from those tested, without regard to their results.
A dash means the value is not listed here; it may have been measured.

compound	Mtb heat-shock	LdMetRS	Mtb growth Cornell
COCc1ccccc1NC(=O)NC(C)c1ccc(C)o1 (stereo not shown)	12.72	7.829	-
COc1ccc(-c2cnc(CN3CCCC3Cn3cncn3)o2)cc1 (stereo not shown)	5.264	20.32	3.11
CN1CC(=O)N(c2ccsc2)CC12CCN(C(=O)c1ccccc1)C2.O=C(O)C(F)(F)F (stereo not shown)	3.275	-	-1.255
CC(NC(=O)CN1CCN(c2ccncc2Cl)CC1)c1ccco1 (stereo not shown)	-6.466	-0.2481	12.12
O=C(NCc1ccncc1)Nc1cc(C(F)(F)F)c[nH]c1=O	22.93	11.58	-
Cc1ccccc1-n1cnc(Cl)c1CO	-19.65	18.05	-29.36
CCN(C)C[C@@H]1CN(S(=O)(=O)c2cccc(C#N)c2)C[C@@H]1CO	7	13.64	-
[H][C@@]12OCCN(S(=O)(=O)c3cn(C)cn3)[C@@]1([H])CC[C@H]2OCC	4.272	-	23.86
O=C(O)C(F)(F)F.O=C(O)C(F)(F)F.O=C(O)C(F)(F)F.[H][C@@]12CCC(=O)N(Cc3cccc(C)n3)[C@]1([H])CCN2Cc1nccn1C	-6.977	-	17.77
CCC(=O)N1CCCN(Cn2nc(C)c(Br)c2C)CC1	3.186	9.034	-9.817
CC(C)c1nnc2n1CCN(C(=O)c1cccc(S(C)(=O)=O)c1)C2	-18.14	6.627	-
O=C(N[C@@H]1CN(Cc2cccc3[nH]ccc23)C[C@H]1O)c1cscn1	-20.92	10.12	-
CN1CCCCC1c1ncc2c(n1)CCN(Cc1ccccc1Cl)C2 (stereo not shown)	87.15	9.408	-
Cc1ccoc1C(=O)N1CCCC(CNS(C)(=O)=O)C1 (stereo not shown)	-16.35	11.35	-
COc1c(CNC(C)c2sc(C)nc2C)c(C(C)C)nn1C (stereo not shown)	-6.766	8.488	-26.31
Fc1cnc(N2CCN3C[C@H](Oc4cncnc4)C[C@H]3C2)nc1	-	4.945	-
CNC(=O)C(C)(C)NC(=O)c1cc(OCC2CCC2)cc(C(=O)OC)c1	1.464	13.3	-0.009142
CCC(NCc1cccc(Cl)c1)c1ccccc1OCC(=O)NC (stereo not shown)	-7.34	5.85	-
C[C@@H](O)CNC(=O)CCc1nc2cccnc2[nH]1	-6.164	12.42	1.028
O=C(Nc1cccnc1)[C@@H]1C[C@H]2OCC[C@H]2N(Cc2ccsc2)C1	-	3.863	-
CC(C)N1CCC(c2nnc(CN3CCCC3)n2C2CC2)CC1	-27.25	-	-
CCc1nnsc1C(=O)N(C)Cc1ccc(Br)o1	-13.45	-2.821	19.2
O=C(O)C(F)(F)F.[H][C@@]12CCN(Cc3ccc(C)s3)[C@]1([H])CC[C@H](C(=O)N1CCCO1)O2	-23.39	-	19.79
O=C(C1CC(=O)N(C2CC2)C1)N1CCC(Oc2ccccc2Cl)CC1 (stereo not shown)	-10.9	11.35	13.42
O=C(NCCCO)Nc1cccc(C[S+]([O-])Cc2ccccc2)c1 (stereo not shown)	-10.73	19.93	32.98
CN(C)CCOCC1CN(C(=O)c2ccnnc2)Cc2ccnn2C1 (stereo not shown)	-	15.56	-
COCC1CN(c2ccc(Cl)cc2C#N)CCO1 (stereo not shown)	-21.07	7.609	17.71
CC(=O)NCCNC(=O)CN1CCN(Cc2nccn2C)C(C)C1 (stereo not shown)	8.467	4.127	4.924
O=C1[C@H]2CN(Cc3nccs3)C[C@H]2CN1c1cncnc1	-	12	-
CN1CCN(C(=O)[C@H]2CC[C@@H]3[C@@H](CCN3Cc3nccs3)O2)CC1	-	7.372	-
Cc1cc2nc(C(C)C)cc(N(C)CC3CCCN3C)n2n1 (stereo not shown)	-3.517	15.74	-
Cn1cc(CN2CCOC(c3cccc(-c4cccc(F)c4)n3)C2)cn1 (stereo not shown)	2.072	13.92	11.66
O=C(O)C(F)(F)F.O=S(=O)(C1CC1)N1CCC2(CC1)CC(Oc1cccnc1)CO2 (stereo not shown)	4.581	-	16.51
CC(C)Nc1ncnc2c1CCN(C(=O)Cc1ccccn1)CC2	-	4.564	-
COc1ccc(NC(=O)c2cnc(N3CCN(C)CC3)nc2C)cc1	12.56	11.11	14.5
[H][C@@]12CCCN1C[C@@H](CCSC)N(Cc1cnn(CC)c1)C2	-15.38	-	-17.4
Cc1cccnc1NCCNc1cc(C(C)C)nc2ccnn12	97.5	9.677	12.55
O=C(O)C(F)(F)F.[H][C@]12C[C@@H](C(=O)NCc3cccs3)CO[C@@]1([H])CCN(CCOC)C2	-7.487	-	-22.85
c1cnn(CC2CCN(c3nc(C4CC4)nc4c3CCNCC4)CC2)c1	-17.48	-2.857	9.097
O=C(c1sccc1Br)N(Cc1cccnc1)C1CC1	49.41	19.2	-
COc1cccc(CN2CCCC(c3nn(C)c4nccnc34)C2)c1 (stereo not shown)	-	9.375	-
COC(=O)CSc1nnc2[nH]c(=O)c3c(n12)CCCC3	24.61	4.317	-33.84
N[C@H]1CC[C@@H](n2cc(C(=O)NC3COc4ccccc43)nn2)CC1 (stereo partly shown)	-6.866	19.24	8.791
CCS(=O)(=O)N1CCc2nc(N3CCCC3)nc(N(C)C)c2CC1	-37.03	3.261	-57.71
O=C(O)C(F)(F)F.O=C(O)C(F)(F)F.[H][C@]12CCC(=O)N(CCN3CCCC3)[C@@]1([H])CCN2Cc1ccc(C)s1	-14.97	-	-
Cc1cnn(Cc2cc(F)ccc2F)c1NC(=O)C1COCCO1 (stereo not shown)	5.634	18.54	8.18
Cc1cc(-c2cnc(NCc3ccccn3)nc2C(C)C)on1	14.99	15.1	76.78
CCCc1nnc(SCC(=O)Nc2cc(C(C)(C)C)nn2C)[nH]1	-34.45	4.891	-27.77

Some entries from above, unchanged:

COCc1ccccc1NC(=O)NC(C)c1ccc(C)o1 (stereo not shown) gave Mtb heat-shock: 12.72%; LdMetRS: 7.829%.
COCC1CN(c2ccc(Cl)cc2C#N)CCO1 (stereo not shown) gave Mtb heat-shock: -21.07%; LdMetRS: 7.609%; Mtb growth Cornell: 17.71%.